## Results of single-concentration screens

The chains behind the UniProt entries cited, without tags or fusion partners. Residues count along the entry.
UniProt Q4DA54, 1-478: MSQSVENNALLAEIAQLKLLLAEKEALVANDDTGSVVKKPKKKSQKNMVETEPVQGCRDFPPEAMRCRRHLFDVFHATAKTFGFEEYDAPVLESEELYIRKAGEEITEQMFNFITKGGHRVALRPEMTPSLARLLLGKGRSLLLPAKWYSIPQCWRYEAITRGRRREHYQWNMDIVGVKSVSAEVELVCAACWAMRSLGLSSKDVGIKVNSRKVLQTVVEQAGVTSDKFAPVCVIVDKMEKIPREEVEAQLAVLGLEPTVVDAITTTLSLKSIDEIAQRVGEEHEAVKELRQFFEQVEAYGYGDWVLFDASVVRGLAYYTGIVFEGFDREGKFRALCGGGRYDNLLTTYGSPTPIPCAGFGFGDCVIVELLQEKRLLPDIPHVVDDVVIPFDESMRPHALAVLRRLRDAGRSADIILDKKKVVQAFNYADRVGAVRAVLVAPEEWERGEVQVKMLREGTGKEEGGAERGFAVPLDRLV
UniProt Q8IDJ8, 1-583: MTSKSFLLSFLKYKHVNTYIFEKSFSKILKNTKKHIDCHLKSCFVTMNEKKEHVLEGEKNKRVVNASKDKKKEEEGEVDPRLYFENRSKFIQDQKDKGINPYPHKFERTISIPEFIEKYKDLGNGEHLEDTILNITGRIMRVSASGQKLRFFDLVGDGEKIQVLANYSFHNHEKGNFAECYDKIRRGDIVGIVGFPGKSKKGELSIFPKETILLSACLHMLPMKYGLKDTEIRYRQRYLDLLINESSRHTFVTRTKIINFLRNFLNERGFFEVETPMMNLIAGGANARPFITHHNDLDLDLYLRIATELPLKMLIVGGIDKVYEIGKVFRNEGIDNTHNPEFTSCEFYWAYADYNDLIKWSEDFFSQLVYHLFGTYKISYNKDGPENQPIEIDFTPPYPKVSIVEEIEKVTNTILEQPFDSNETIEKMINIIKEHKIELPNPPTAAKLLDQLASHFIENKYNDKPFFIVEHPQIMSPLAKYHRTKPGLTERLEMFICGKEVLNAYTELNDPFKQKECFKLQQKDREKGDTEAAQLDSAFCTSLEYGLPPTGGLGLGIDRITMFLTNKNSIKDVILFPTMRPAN

A: 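Histidine-tRNA ligase, Trypanosoma cruzi CL Brener (UniProt Q4DA54). Enzyme assay of histidyl-tRNA synthetase; the read-out is not stated. Compounds at 30 µM. Direction is inferred from retests: higher values go with stronger inhibition. About 69,000 compounds were tested under these conditions; 0.045% (about 31) showed 50% or more at least once.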
B: 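Lysine-tRNA ligase, Plasmodium falciparum 3D7 (UniProt Q8IDJ8). Enzyme assay of the cytosolic lysyl-tRNA synthetase in 384-well plates, read by luminescence. Compounds at 30 µM. Higher reads as stronger inhibition, judged from the few compounds that gave an IC50. Size under these conditions: about 69,000 compounds, about 49 of them at 50% or above in at least one test.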

The filed quantity is “Percent Effect” (%). How 0% and 100% were set is not recorded. Most values in the screen are low, and negative values occur. The compounds are a random part of those screened.

Cc1cccc(OCCC(=O)N2CCN(CC(=O)NC3CC3)CC2)c1C gave A: 2.857%; B: 3.473%.
CCN1C[C@H]2CCN(C(C)=O)CC[C@H]2S1(=O)=O gave A: -1.639%; B: 8.315%.
CC(C)C(=O)N1CC[C@@H]2[C@H](CC1)N(Cc1cccnc1)CCS2(=O)=O gave A: -0.9346%; B: -0.1389%.
CC(C)n1ccnc1CN1CCCN(C(=O)c2cscn2)CC1 gave A: 4.985%; B: -1.854%.
CC(=O)N1CC2(CCN(Cc3ccc(Cl)cc3)CC2)Cc2ccccc21 gave A: 6.509%; B: -2.218%.
O=C1CO[C@@H]2CN(C(=O)CCc3ccccc3)C[C@H]2N1 gave A: 4.854%; B: 5.116%.
CNC(=O)c1ccc(-c2ccc(CNS(=O)(=O)N(C)C)cc2)nc1C gave A: 5.747%; B: -1.619%.
CC(C)OC(C)c1nnc(SCC(=O)O)n1-c1ccc(F)cc1F (centres unmarked) gave A: 1.064%; B: 3.417%.
CC1CCc2nn(CCNC(=O)Cc3ccc(F)cc3)c(=O)cc2C1 (centres unmarked) gave A: 8.527%; B: 0.8869%.
CCc1noc(CS(=O)(=O)Cc2ccccc2C)n1 gave A: 7.778%; B: 3.275%.
O=C(c1ccccn1)N1Cc2ccccc2OC2(CCOCC2)C1 gave A: 2.239%; B: 2.435%.
COC1CCN(C(=O)CCc2c(C)nc3ccnn3c2C)CC1 gave A: 1.515%; B: 4.285%.
N#Cc1c(N2CCN(CC3CCOC3)CC2)nc2ccccn12 (centres unmarked) gave A: 5.946%; B: 3.7%.
Cc1ccccc1C(=O)NCc1ccc(N2CCNC(=O)C2)c(F)c1 gave A: 0%; B: 4.81%.
O=C(NC1CC1)[C@H]1COC[C@H]2CN(c3ncc(F)cn3)C[C@H]21 gave A: 8.589%; B: 6.183%.
CC(C)c1nnc2n1CCN(C(=O)Cc1csc(C(C)(C)C)n1)C2 gave A: 6.471%; B: 0.507%.
CCN(Cc1ccc(-c2ccccn2)cc1)C1CCS(=O)(=O)C1 (centres unmarked) gave A: 6.667%; B: -1.077%.
CC(C)c1nn(C)c(N(C)C)c1CNC(C)c1ccc2c(c1)OCO2 (centres unmarked) gave A: 5.78%; B: -1.416%.
CC(C)c1cc(NC(=O)CN2CCC(N3CCCCC3)CC2)on1 gave A: 1.141%; B: 6.066%.
O=C(c1ccoc1)N1CCOC2(COCCN(c3ncccn3)C2)C1 (centres unmarked) gave A: 5.102%; B: 1.305%.
Cc1nc(C)n(CC2CCCN(Cc3ccc(C(N)=O)cc3)C2)n1 (centres unmarked) gave A: 2.642%; B: 4.184%.
O=c1cc(Cn2cncn2)nc2n1CCCN(Cc1ccsc1)C2 gave A: 0%; B: 1.174%.
Cc1ccc(C)c(NC(=O)Cn2nc(C)c(C#N)c2N)c1 gave A: 3.784%; B: 1.571%.
Cn1nccc1C(=O)NC(C)(C)c1noc(C(C)(C)C)n1 gave A: 0.578%; B: 5.752%.
CCCN1CC2(CCN(C)CC2)CC1C(=O)NCCn1ccc(C)n1 (centres unmarked) gave A: 7.143%; B: 8.895%.
N#Cc1cccc(S(=O)(=O)CCN2CCOC2=O)c1 gave A: 9.211%; B: 4.249%.
CCCOc1ccc(CNC2CCCc3c2cnn3CC)cc1OC (centres unmarked) gave A: 1.504%; B: 12.24%.
COc1cccc(COCC(=O)N2CCCC(c3cc(C)[nH]n3)C2)c1 (centres unmarked) gave A: 5.263%; B: 10.36%.
CC(C(=O)N1CCN(CCOc2ccccc2)CC1)n1cncn1 (centres unmarked) gave A: -0.4926%; B: 9.494%.
CN(Cc1nc(C2CC2)no1)C1CCCN(c2cccnn2)C1 (centres unmarked) gave A: 9.023%; B: 6.909%.
COc1ccc(OC)c(-n2nnnc2SCC2CCCN(C)C2)c1 (centres unmarked) gave A: 0%; B: 1.402%.
Cc1cc(N(C)Cc2ncc(-c3ccccc3C(=O)O)s2)ncn1 gave A: 3.03%; B: 1.274%.
CS(=O)(=O)N1CCc2[nH]cnc2C12CCN(C(=O)c1ccccc1)CC2 gave A: 3.061%; B: 5.663%.
COc1ccccc1NC(=O)N(CCO)Cc1ccsc1 gave A: -0.8772%; B: 5.852%.
COc1c(C2CCCN2C(=O)c2csc(C3CC3)n2)c(C)nn1C (centres unmarked) gave A: -1.149%; B: -1.341%.
CC(=O)N1CCO[C@@H]2CN(S(=O)(=O)c3ccc(F)cc3)CC[C@@H]2C1 gave A: 4.444%; B: 2.525%.
CS(=O)(=O)c1cc(C(=O)NS(=O)(=O)Cc2ccc(F)cc2)ccc1Cl gave A: 6.077%; B: 6.491%.
CC(C)(C)c1cn2nc(N3CCCC(Cn4cncn4)C3)sc2n1 (centres unmarked) gave A: 4.167%; B: -0.1011%.
CN(C)CC1(O)CCN(C(=O)c2cnc(-c3ccccn3)nc2)C1 (centres unmarked) gave A: -0.5618%; B: -2.066%.
O=C(c1nc(=O)[nH]c2ccccc12)N1CCCC(CC2CC2)(C(=O)O)C1 (centres unmarked) gave A: 15.48%; B: 3.106%.
O=C(NCCCN1CCOCC1)c1cc(-c2ccccc2)[nH]n1 gave A: 7.035%; B: 7.4%.
CN1CCN(c2ccc(NC(=O)c3ccoc3)c(C(F)(F)F)c2)CC1 gave A: 6.077%; B: -1.309%.
CSc1ccccc1C(=O)Nc1ccc(OC2CCN(C)CC2)cc1 gave A: 1.508%; B: -2.415%.
CC(C)C(=O)N1CCN(C(=O)c2cscn2)[C@H]2CS(=O)(=O)C[C@H]21 gave A: 0%; B: 3.928%.
CC(NC(=O)c1cccs1)C(=O)NCc1cccnc1N1CCCCC1 (centres unmarked) gave A: 3.817%; B: 5.344%.
CC(C(=O)N1CCC(Cc2ccc(F)cc2)CC1)n1ccnc1 (centres unmarked) gave A: 14.94%; B: 7.119%.
c1cc2cc[nH]c2c(CC2CN(Cc3cscn3)C2)n1 gave A: 26.36%; B: 1.316%.

The last 4 entries again:

- CC(C)C(=O)N1CCN(C(=O)c2cscn2)[C@H]2CS(=O)(=O)C[C@H]21 | A: 0%; B: 3.928%
- CC(NC(=O)c1cccs1)C(=O)NCc1cccnc1N1CCCCC1 (centres unmarked) | A: 3.817%; B: 5.344%
- CC(C(=O)N1CCC(Cc2ccc(F)cc2)CC1)n1ccnc1 (centres unmarked) | A: 14.94%; B: 7.119%
- c1cc2cc[nH]c2c(CC2CN(Cc3cscn3)C2)n1 | A: 26.36%; B: 1.316%

From ChEMBL document CHEMBL3988442, “University of Dundee, Small-Polar-MMV Screening Library” (2021).